Library screening results

The values are deposited in ChEMBL (CHEMBL3988442, “University of Dundee, Small-Polar-MMV Screening Library” (2021)).

Each number is a percent effect as filed.
The controls that fix the scale are not given in the record; negative values are as filed.
The compounds are a random part of those screened.

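Whole-cell assay for inhibitors of Mycobacterium tuberculosis growth, labelled Cornell in the record; the read-out is not stated. The concentration is filed as 10 mM, unlikely as a test dose, so the dose is not known. The record gives no direction; compounds strong in two other growth screens of this library score well above the rest, so higher reads as stronger inhibition. Of about 53,000 compounds tested this way, about 900 (1.7%) reached 50% or more in at least one test.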

| structure | percent effect |
|---|---|
| `CC(C)C(Nc1nc(C(F)(F)F)nc2ccccc12)C(=O)O` (stereo not given) | 14.93% |
| `O=C(O)C(F)(F)F.O=C(c1ccncc1)N1CCCC2(COCCN(c3ccccc3)C2)C1` (stereo not given) | -0.6363% |
| `COc1nc2c(cc1C(=O)NCCc1nc(C)c(C(=O)O)s1)CCC2` | 12.36% |
| `CN(C)Cc1ccc(N2CCN(CCOCC(F)(F)F)CC2)nc1` | -6.542% |
| `CCC(NC(=O)C(C)C)c1ccccc1C` (stereo not given) | 14.3% |
| `CC1COCCN1C(=O)c1cccc(OCc2cscn2)c1` (stereo not given) | 13.91% |
| `Cc1cccc(-c2noc([C@@H]3C[C@@H](O)CN3CC3CCCCC3)n2)c1` | 14.89% |
| `Cc1cc2nc(C(C)C)cc(NCc3ccncc3)n2n1` | -23.44% |
| `NC(=O)C1(c2cnccn2)CCCN1C(=O)Cc1ccsc1` (stereo not given) | 13.83% |
| `Cc1ccsc1C(=O)N1CCCn2nnc(Cn3cccn3)c2C1` | -13.16% |
| `CCN1Cc2nccn2CC(COCc2csc(C)n2)C1.O=C(O)C(F)(F)F.O=C(O)C(F)(F)F` (stereo not given) | 5.812% |
| `O=C1CN(CCCNC(=O)Nc2ccccn2)CCN1` | -22.06% |
| `COc1ccc(N(C(=O)c2ccc(C)nc2)C(C)C)cc1F` | -37.82% |
| `COc1cc(N(C)Cc2cccc(-n3cccn3)c2)nc(N)n1` | 37.25% |
| `CCN1CCC(CNCc2c[nH]nc2C(C)(C)C)C1.Cl` (stereo not given) | 10.08% |
| `CC(c1ncc(-c2ccccc2)o1)N1CCN(C(=O)C(C)(C)C)CC1` (stereo not given) | 5.861% |
| `Cc1cc2c(cc1C)C(NCc1nnc3n1CCCCC3)CCCO2` (stereo not given) | 4.057% |
| `[H][C@@]12OCCC[C@]1([H])N(C(C)=O)C[C@@H]2NC(=O)c1cscn1` | -11.85% |
| `O=C(CCc1cc(Cl)no1)N1CCCCC1CCn1ccnc1` (stereo not given) | -25.98% |
| `CC(C)N(C)C(=O)c1ccc(Cl)c(NC(=O)COCC2CC2)c1` | 15.21% |
| `O=C(O)C(F)(F)F.O=C1CCC2(CCCN(CCc3ccccc3)C2)N1Cc1cccnc1` (stereo not given) | 12.39% |
| `O=C(NCCCO)Nc1cccc(C[S+]([O-])c2ccccc2)c1` (stereo not given) | 27.38% |
| `[H][C@@]12CS(=O)(=O)C[C@]1([H])N(Cc1ccc(C)c(C)c1)CCN2CC1CC1` | 21.5% |
| `O=c1n(Cc2ccc(C(F)(F)F)cc2)nc2ncccn12` | -25.66% |
| `CNc1cc(-c2ccncc2)ncn1` | -56.35% |
| `CC(C)Oc1cc(N2CCC(C(N)=O)CC2)nc(N)n1` | -18.27% |
| `CC(=O)NC1CCN(c2ncnc3c2c(C)nn3C)C1` (stereo not given) | 26.97% |
| `Cc1nnc(CN2CCN(C)C3(CCNC(=O)CC3)C2)s1` (stereo not given) | 5.133% |
| `CN1C(=O)CC(c2cnn(C)c2)C12CCN(C(=O)c1ccno1)CC2` (stereo not given) | -7.356% |
| `COc1ccnc(NC(=O)c2ccsc2)c1` | -2.635% |
| `Cl.NC(=O)COc1ccc(CNCc2ccc(F)c(F)c2)cc1` | -0.2998% |
| `[H][C@@]12CCC(=O)N(CCCOC)[C@]1([H])CCN(Cc1ccc3nonc3c1)C2` | -1.49% |
| `CN(C)c1ccc(CN2CCC(C(O)Cc3ccccc3)CC2)cn1` (stereo not given) | 0.3854% |
| `O=S(=O)(Cc1ccc(F)cc1F)NCCOc1cccnc1` | 20.68% |
| `Cc1cc(CNC(=O)C2CCN(CC(N)=O)CC2)cc(C)n1` | 7.638% |
| `Cn1cc(-c2ncnc3c2CCN(C(=O)N2CCOCC2)CC3)cn1` | -11.31% |
| `COCCN(C)C[C@@H]1CN(c2nc(C)cc(C)n2)C[C@@H]1CO` | 12.53% |
| `O=C(CCN1C(=O)CCC1=O)Nc1ccc(Cl)cc1` | 18.23% |
| `Cc1noc(C)c1CN1CCCC2(C1)CN(c1nccs1)CCO2.O=C(O)C(F)(F)F` (stereo not given) | 14.99% |
| `Cc1ccc(N2CCc3c(CN(C)Cc4ccco4)cncc3C2)nn1.Cl.Cl` | 45.06% |
| `O=C(Cc1ccccn1)N1CCC2(CCCN(CC3CCOCC3)C2)C1` (stereo not given) | 1.399% |
| `CC(C)(C)OC(=O)NC(C)(C)c1noc(Cn2ccnc2)n1` | -21.84% |
| `COCCN1CCN(CCCc2nnnn2-c2ccccc2)CC1` | -14.9% |
| `c1ccc(CN2CCc3ncnc(-c4cncnc4)c3CC2)nc1` | -96.04% |
| `COc1cc(CN2CC[C@@]3(CCCO3)[C@@H](O)C2)ccc1F` | 4.56% |
| `COC(=O)[C@H](CCSC)NC(=O)Cc1c(C)nn(-c2ccccc2)c1C` | 83.92% |
| `NCc1cn(-c2ccccc2C(=O)NCc2ccccc2Cl)cn1` | -8.218% |
| `[H][C@]12CCC[C@@]1(COCc1ccccn1)CN(C(=O)C1CCOCC1)C2` | -1.483% |
| `CNc1cccc(C2CCCN(C(=O)c3ccncc3)C2)n1` (stereo not given) | 10.88% |
| `CC/C=C(/C)C(=O)NCCc1csc(N2CCCC2)n1` | -5.004% |
| `COc1ccc(CCN2CCc3c(nc(C4CC4)n3C)C2)cc1` | -14.17% |
| `Cc1cccn2cc(CN3CCCC(c4ccn[nH]4)C3)nc12` (stereo not given) | 18% |
| `O=S(=O)(Cc1ccc(F)cc1)NCCc1nnc2n1CCC2` | 17.26% |
| `COc1ccccc1OCC(=O)Nc1ncccc1Cl` | -40.12% |
| `O=C(Cc1ccccc1)NCCNCc1cccc(O)c1` | -40.79% |
| `CC(=O)N1CCC(c2cnc(NC3CCOCC3)cn2)CC1` | 8.393% |

Repeated from the top, 4 entries:

structure	percent effect
CC(C)C(Nc1nc(C(F)(F)F)nc2ccccc12)C(=O)O (stereo not given)	14.93%
O=C(O)C(F)(F)F.O=C(c1ccncc1)N1CCCC2(COCCN(c3ccccc3)C2)C1 (stereo not given)	-0.6363%
COc1nc2c(cc1C(=O)NCCc1nc(C)c(C(=O)O)s1)CCC2	12.36%
CN(C)Cc1ccc(N2CCN(CCOCC(F)(F)F)CC2)nc1	-6.542%